SMILES strings stand for the structures. The list does not hold the whole screen: it gathers tests that were run many times, whatever their T/C, doses with no T/C, and many T/C values between a quarter and a half above the control. Further doses and runs are listed elsewhere. T/C gives the treated animals as a percentage of the vehicle group. Some entries give survivors of the animals treated and no T/C: the source files T/C as zero there, which appears to mark a toxic dose or a test without result, not a measured value. Some survivor counts are full or nearly so, which does not show that the dose was tolerated: the source hardly ever lists a survival T/C far under the control, and the zero likely stands for such cases as well. Counts of survivors are from the toxicity check (mostly the fifth day) where no day follows; animals may have died later. Schedule codes are those of the source, taken here to give the interval after Q, in days (D) or hours (H), and the number of doses after X. Some entries were tested several times; the values are given in rising order. Where survival is the endpoint, this PubChem deposit counts one and a half times the control or more as active, and values a quarter to a half above the control carry no call in these data; other NCI protocols may use other cut-offs.

The test system of the assay is P388 leukemia ip, CD2F1 mice, survival T/C. Put plainly: NCI In Vivo Anticancer Drug Screen. Data for tumor model P388 Leukemia (intraperitoneal) in CD2F1 (CDF1) mice. The following applies: T/C endpoint: median survival time, higher T/C = longer survival.
Where [1] appears, read: dose: 50.0 mg/kg/injection, schedule: Q01DX009 (ip), vehicle: other.
[2] abbreviates: dose: 12.5 mg/kg/injection, schedule: Q01DX009 (ip), vehicle: Klucel (hydroxypropylcellulose) (HPC).
The mark [3] stands for this setting: dose: 25.0 mg/kg/injection, schedule: Q01DX009 (ip), vehicle: Klucel (hydroxypropylcellulose) (HPC).
Where [4] appears, read: dose: 50.0 mg/kg/injection, schedule: Q01DX009 (ip), vehicle: Klucel (hydroxypropylcellulose) (HPC).
[5] abbreviates: dose: 100.0 mg/kg/injection, schedule: Q01DX005 (ip), vehicle: saline with Tween-80.
Setting [6] is: dose: 200.0 mg/kg/injection, schedule: Q01DX005 (ip), vehicle: saline with Tween-80.
The mark [7] stands for this setting: dose: 50.0 mg/kg/injection, schedule: Q01DX009 (ip), vehicle: saline.
The mark [8] stands for this setting: dose: 100.0 mg/kg/injection, schedule: Q04DX002 (ip), vehicle: saline with Tween-80.
Where [9] appears, read: dose: 400.0 mg/kg/injection, schedule: Q04DX002 (ip), vehicle: saline with Tween-80.
[10] abbreviates: dose: 100.0 mg/kg/injection, schedule: Q01DX005 (ip), vehicle: Klucel (hydroxypropylcellulose) (HPC).
Where [11] appears, read: dose: 200.0 mg/kg/injection, schedule: Q01DX005 (ip), vehicle: Klucel (hydroxypropylcellulose) (HPC).
Setting [12] is: dose: 200.0 mg/kg/injection, schedule: Q01DX009 (ip), vehicle: saline with Tween-80.
The mark [13] stands for this setting: dose: 240.0 mg/kg/injection, schedule: Q01DX005 (ip), vehicle: saline with Tween-80.

Regarding `CC(=O)Nc1ccc(S(=O)(=O)N/N=C/C(=O)O)cc1`, the T/C reads like this: (dose: 25.0 mg/kg/injection, schedule: Q01DX009 (ip), vehicle: other) 137 % of control; under setting [1], 146 % of control. For the same compound, the survivor count is reported as 5 of 6 (dose: 100.0 mg/kg/injection, schedule: Q01DX009 (ip), vehicle: other) and 3 of 6 (dose: 200.0 mg/kg/injection, schedule: Q01DX009 (ip), vehicle: other).

`C[N+](C)(C)c1cc2c(nn1)Nc1ccccc1S2`: the T/C is 133 % of control (dose: 3.12 mg/kg/injection, schedule: Q01DX009 (ip), vehicle: Klucel (hydroxypropylcellulose) (HPC)); 125 % of control (dose: 6.25 mg/kg/injection, schedule: Q01DX009 (ip), vehicle: Klucel (hydroxypropylcellulose) (HPC)); 129 % of control (dose: 11.0 mg/kg/injection, schedule: Q01DX009 (ip), vehicle: Klucel (hydroxypropylcellulose) (HPC)); 138 % of control under setting [2]; 146 % of control (dose: 17.0 mg/kg/injection, schedule: Q01DX009 (ip), vehicle: Klucel (hydroxypropylcellulose) (HPC)); 138 and 146 % of control under setting [3]. Further, for the setting “dose: 37.5 mg/kg/injection, schedule: Q01DX009 (ip), vehicle: Klucel (hydroxypropylcellulose) (HPC)”, the T/C was 137 % of control. Further, the survivor count under setting [4] is reported as 6 of 6; the survivor count (dose: 100.0 mg/kg/injection, schedule: Q01DX009 (ip), vehicle: Klucel (hydroxypropylcellulose) (HPC)) is listed as 1 of 6; the survivor count (dose: 200.0 mg/kg/injection, schedule: Q01DX009 (ip), vehicle: Klucel (hydroxypropylcellulose) (HPC)) is 0 of 6; the survivor count (dose: 400.0 mg/kg/injection, schedule: Q01DX009 (ip), vehicle: Klucel (hydroxypropylcellulose) (HPC)) is reported as 0 of 6.

Turning to `Clc1ccc(CCNCc2ccc(Cl)cc2)cc1`, the survivor count runs as follows: under setting [5], 5 of 6; under setting [6], 0 of 6.

Turning to `CN1Cc2cc3cc(c2O)C[N+](C)(C)Cc2c(Cl)c(c(Cl)c(c2Cl)C[N+](C)(C)C3)C1`, the survivor count is on record as 0 of 6 (dose: 100.0 mg/kg/injection, schedule: Q01DX001 (ip), vehicle: saline); 0 of 6 (dose: 200.0 mg/kg/injection, schedule: Q01DX001 (ip), vehicle: saline); 0 of 6 (dose: 400.0 mg/kg/injection, schedule: Q01DX001 (ip), vehicle: saline).

With `C=CCOc1ccccc1/C=N/[N+](C)(C)C`, the survivor count under setting [7] is given as 0 of 6.

On to `O=C(O)c1ccccc1C(=O)Nc1ccccc1C(F)(F)F`, for which the survivor count (dose: 600.0 mg/kg/injection, schedule: Q01DX009 (ip), vehicle: saline with Tween-80) is given as 3 of 6.

As to `c1ccc2c(NCC3CCN(c4c5ccccc5nc5ccccc45)CC3)c3ccccc3nc2c1`, the survivor count is reported as 6 of 6 under setting [8]; 1 of 6 (dose: 200.0 mg/kg/injection, schedule: Q04DX002 (ip), vehicle: saline with Tween-80); 0 of 6 under setting [9].

Consider `COc1ccc(Cc2c3ccccc3cc[n+]2Cc2ccccc2)cc1OC`, for which the survivor count is reported as 0 of 6 under setting [5] and 0 of 6 under setting [6].

On to `CC(=O)SCC[n+]1cc2ccccc2c2ccccc21`, for which the survivor count is on record as 4 of 5 under setting [10] and 0 of 5 under setting [11].

On to `O=C1NC(=O)C2C1C1C(=O)NC(=O)C21` (centres undefined), for which the survivor count under setting [12] was 5 of 6.

For `NC(=O)/N=[N+](\[O-])c1ccccc1`, the survivor count (dose: 200.0 mg/kg/injection, schedule: Q04DX003 (ip), vehicle: Klucel (hydroxypropylcellulose) (HPC)) was 1 of 6.

As for `N/C(=N\OC1(c2ccccc2)OC(=O)C(=O)/C1=C(/O)c1ccccc1)c1ccccc1` (centres undefined), the survivor count under setting [13] is given as 3 of 6.

Take `CC1=C2C(O)C(=O)OC3CC4C(C)(C)C(=O)CCC4(C)C(CC1)C23C` (centres undefined): the survivor count by setting is: (dose: 1.75 mg/kg/injection, schedule: Q01DX009 (ip), vehicle: Klucel (hydroxypropylcellulose) (HPC)) 6 of 6; (dose: 3.5 mg/kg/injection, schedule: Q01DX009 (ip), vehicle: Klucel (hydroxypropylcellulose) (HPC)) 6 of 6; (dose: 7.0 mg/kg/injection, schedule: Q01DX009 (ip), vehicle: Klucel (hydroxypropylcellulose) (HPC)) 6 of 6; (dose: 14.0 mg/kg/injection, schedule: Q01DX009 (ip), vehicle: Klucel (hydroxypropylcellulose) (HPC)) 6 of 6; (dose: 28.0 mg/kg/injection, schedule: Q01DX009 (ip), vehicle: Klucel (hydroxypropylcellulose) (HPC)) 6 of 6.

Take `CCN(CC)C(=S)C(C)(C)C`: the survivor count under setting [13] is 0 of 6.

For `C=CCNCCC1CCCCCC1`, the survivor count is, setting by setting: under setting [10], 5 of 5; under setting [11], 0 of 5.

For the compound `C(=N/NC1=NCCN1)/c1c2ccccc2c(/C=N\NC2=NCCN2)c2ccccc12`, the T/C (dose: 0.1 mg/kg/injection, schedule: Q01DX009 (ip), vehicle: saline) is 145 % of control.

As for `CCOC(=O)CCC(NC(=O)c1ccc(NCc2cnc3nc(N)nc(N)c3c2)cc1)C(=O)OCC` (centres undefined), the survivor count (dose: 2.0 mg/kg/injection, schedule: Q01DX005 (ip), vehicle: saline with Tween-80) was 5 of 5 and 6 of 6; the survivor count (dose: 4.0 mg/kg/injection, schedule: Q01DX005 (ip), vehicle: saline with Tween-80) is 5 of 5; the survivor count (dose: 8.0 mg/kg/injection, schedule: Q01DX005 (ip), vehicle: saline with Tween-80) is on record as 5 of 5; the survivor count (dose: 16.0 mg/kg/injection, schedule: Q01DX005 (ip), vehicle: saline with Tween-80) is 5 of 5; the survivor count (dose: 2000.0 micrograms/kg/injection, schedule: Q01DX005 (ip), vehicle: saline with Tween-80) is reported as 10 of 10. Further, the T/C reads like this: (dose: 250.0 micrograms/kg/injection, schedule: Q01DX005 (ip), vehicle: saline with Tween-80) 127 % of control; (dose: 500.0 micrograms/kg/injection, schedule: Q01DX005 (ip), vehicle: saline with Tween-80) 139 % of control.

As to `CNC(=O)OCc1c(COC(=O)NC)c(C)n(-c2ccc(C)cc2)c1C`, the T/C runs as follows: under setting [2], 127 and 142 % of control; under setting [3], 130 and 136 % of control; under setting [4], 133 and 143 % of control.

Take `O=C(c1ccc(-c2ccccc2)cc1)C(Br)C(Br)c1ccccc1` (centres undefined): the survivor count under setting [1] is given as 6 of 6.

As for `c1cc[n+](CCC2OCCO2)cc1`, the survivor count is, setting by setting: under setting [7], 6 of 6; (dose: 200.0 mg/kg/injection, schedule: Q01DX009 (ip), vehicle: saline) 0 of 6.

Consider `C/C=C(\NN=NC)c1ccccc1`, for which, under setting [8], the T/C was 140 % of control. Under setting [9], the survivor count is 1 of 5.

In the case of `CC(C)(C)C(O)c1cccnc1` (centres undefined), for the setting “dose: 400.0 mg/kg/injection, schedule: Q04DX003 (ip), vehicle: saline with Tween-80”, the survivor count is 5 of 6.

With `CC(C)Cc1c(O)c(N=Nc2ccc(C(=O)O)c(O)c2)c2ccccc2c1O`, the survivor count (dose: 400.0 mg/kg/injection, schedule: Q04DX002 (ip), vehicle: distilled water + alcohol) is reported as 0 of 6.

Take `COc1cc(N=Nc2cccc(C(=O)O)c2)ccc1N(CCCl)CCCl`: the T/C (dose: 6.25 mg/kg/injection, schedule: Q01DX009 (ip), vehicle: saline with Tween-80) is 128 % of control; the T/C (dose: 12.5 mg/kg/injection, schedule: Q01DX009 (ip), vehicle: saline with Tween-80) was 128 % of control; the T/C (dose: 25.0 mg/kg/injection, schedule: Q01DX009 (ip), vehicle: saline with Tween-80) is 130 % of control. The survivor count is, setting by setting: (dose: 50.0 mg/kg/injection, schedule: Q01DX009 (ip), vehicle: saline with Tween-80) 6 of 6; (dose: 100.0 mg/kg/injection, schedule: Q01DX009 (ip), vehicle: saline with Tween-80) 4 of 6; under setting [12], 0 of 6.
